Results reported in US9605038B2, “Fusion peptide comprising dhFas-1 domain and MMP substrate and use thereof for preventing and treating rheumatoid arthritis” (Kyungpook National University Industry-Academic Cooperation …, priority 2010, dated 2017).
Some of these results come from one statement about several compounds together.

Test system: human fibroblast-like synovicyte (FLS)
Assay: βig-h3-mediated cell adhesion test, FLS
Type: cell-based
Conditions: FIG. 33 to 35
Method: βig-h3 was introduced into a 96-well plate at a concentration of 5 ug/ml, and coated for 14 hours at 4° C. In DMEM+0.5% BSA (Bovine Serum Albumin) culture medium, human fibroblast-like synovicyte (FLS) was introduced, and HsFJ24, HsFJ25 or HsFJ27 at concentrations was injected thereto, followed by mixing. The resultant mixture was cultured at 37° C. for 30 minutes, and plated on a coated well. It was cultured for 2 hours, and washed with PBS (phosphate buffered saline) so as to remove unattached cells, and then added with a substrate (4-Nitrophenyl N-acetyl-β-D-glucosaminide, Sigma, U.S.) to be activated by β-N-acetylglucosaminidase within the cell, followed by culturing at 37° C. for 1 hour. Then, a glycine EDTA solution (0.5M EDTA, 50 mM glycine, pH 10.4) was added thereto, and the coloring extent according to the number of attached cells was measured by absorbance.

| Molecule | concentration at which treatment inhibited the adhesion |
| --- | --- |
| HsFJ24: fusion peptide having sequential links of hsdhFas-1, MMP1 substrate GPQGIAG (SEQ ID NO: 6), and QERGDSLA (SEQ ID NO: 10) (protein, hsFJ24) RALPPRERSRLLGDAKELANILKYHIGDEILVSGGIGALVRLKSLQGDKLEVSLKNNVVSVNKEPVAEPDIMEFGPQGIAGVDGQERGDSLAGLE | ≥ 5 µM |
| HsFJ25: fusion peptide having sequential links of hsdhFas-1, MMP consensus substrate GPLGIAG (SEQ ID NO: 7), and QERGDSLA (SEQ ID NO: 10) (protein, hsFj25) RALPPRERSRLLGDAKELANILKYHIGDEILVSGGIGALVRLKSLQGDKLEVSLKNNVVSVNKEPVAEPDIMEFGPLGIAGVDGQERGDSLAGLE | ≥ 5 µM |
| HsFJ27: fusion peptide having sequential links of hsdhFas-1, MMP3 substrate GPLGLWARG (SEQ ID NO: 8), and QERGDSLA (SEQ ID NO: 10) (protein, hsFJ27) MALFVRLLALALALALGPAATLARSFRALPPRERSRLLGDAKELANILKYHIGDEILVSGGIGALVRLKSLQGDKLEVSLKNNVVSVNKEPVAEPDIMEFGPLGLWARGVDQERGDSLAGLE | ≥ 5 µM |
